36 molecules from PubChem BioAssay can be followed below.

Several values for one entry are separate records, joined by “and”; a condition that tells them apart may be missing. Equal entries are not always repeated. The list shows a part of the results. Shown are side measurements of this screen, not its main read-out; they come without a call.

The nature of the assay: protection against mutant huntingtin cytotoxicity, PC12 cells, LDH release (AID 1610). The note with it: PC12 mutant huntingtin toxicity, final LDH at 4 uM, stronger effect = lower value. In general terms: Release of lactate dehydrogenase indicates damage to the cell membrane.
In the case of `CN(C)[C@@H]1C(=O)C(C(N)=O)=C(O)[C@@]2(O)C(=O)C3=C(O)c4c(O)ccc(Cl)c4[C@@](C)(O)[C@H]3C[C@@H]12`, the normalised LDH release turned out to be 0.671.

As to `CN1C(=O)C(O)N=C(c2ccccc2)c2cc(Cl)ccc21` (stereo unspecified), the normalised LDH release worked out at 0.774.

For `C/C=C(/C)C(=O)O[C@H]1CC[C@@]2(C)[C@@H]3CC[C@H]4[C@]5(O)C[C@H](O)[C@@]6(O)[C@@H](CN7C[C@@H](C)CC[C@H]7[C@@]6(C)O)[C@]5(O)C[C@@]42O[C@]13O`, the normalised LDH release was found to be 0.818.

The molecule `CN1CC[C@]23c4c5ccc(O)c4O[C@H]2C(=O)CCC3[C@H]1C5` (stereo partly specified) displayed a normalised LDH release of 0.931.

`O=[N+]([O-])c1cc([As](=O)(O)O)ccc1O` had a normalised LDH release of 0.851.

Consider `NC(N)=NOCC[C@H](N)C(=O)O`, for which the normalised LDH release stood at 0.997.

Regarding `CO[C@H]1[C@H](O)[C@@H](O[C@H]2CC[C@]3(C=O)C4CC[C@]5(C)[C@@H](C6=CC(=O)OC6)CC[C@]5(O)C4CC[C@@H]3C2)O[C@@H](C)[C@@H]1O` (stereo partly specified), the normalised LDH release amounted to 0.732.

With `CCC1(CC)C(=O)C=CNC1=O`, the normalised LDH release was 0.874 and 1.29.

`CCC1(c2ccccc2)C(=O)NC(=O)NC1=O` came in with a normalised LDH release of 1.06.

In the case of `Nc1ccncc1`, the normalised LDH release amounted to 1.39.

Take `CN1C2CCC1C(C(=O)O)C(OC(=O)c1ccccc1)C2` (stereo unspecified): the normalised LDH release was 0.968.

Molecule `CN1C2CC(OC(=O)[C@H](CO)c3ccccc3)C[C@H]1CC2O` (stereo partly specified) came in with a normalised LDH release of 0.981.

`CC(=O)OC1CN2CCC1CC2` (stereo unspecified) displayed a normalised LDH release of 0.97.

`c1ccc2nc(N3CCNCC3)ccc2c1`: the normalised LDH release worked out at 1.49.

`NCC(O)c1ccc(O)cc1` (stereo unspecified) registered a normalised LDH release of 0.969.

`NCC(CC(=O)O)c1ccc(Cl)cc1` (stereo unspecified): the normalised LDH release was 0.603.

With `C[C@H]1O[C@@H](O[C@H]2[C@@H](O)C[C@H](O[C@H]3[C@@H](O)C[C@H](O[C@H]4CC[C@]5(C)C6CC[C@]7(C)[C@@H](C8=CC(=O)OC8)CC[C@]7(O)C6CC[C@@H]5C4)O[C@@H]3C)O[C@@H]2C)C[C@H](O)[C@@H]1O` (stereo partly specified), the normalised LDH release came out at 1.1.

In turn, `C=C(C)[C@H]1Cc2c(ccc3c2O[C@@H]2COc4cc(OC)c(OC)cc4[C@@H]2C3=O)O1` returned a normalised LDH release of 0.497.

`CCNC(C)Cc1cccc(C(F)(F)F)c1` (stereo unspecified) returned a normalised LDH release of 0.831.

The molecule `N[C@@H](Cc1ccc(N(CCCl)CCCl)cc1)C(=O)O` yielded a normalised LDH release of 1.05.

With `CC(Cc1ccc(O)cc1)NCC(O)c1cc(O)cc(O)c1` (stereo unspecified), the normalised LDH release was found to be 0.739.

Regarding `CO[C@H]1[C@H](O)[C@H](O[C@H]2CC[C@]3(C)C4CC[C@]5(C)C(C6=CC(=O)OC6)CC[C@]5(O)C4CC[C@@H]3C2)O[C@@H](C)[C@@H]1O` (stereo partly specified), the normalised LDH release was 0.834.

Turning to `NC(=O)c1cc([N+](=O)[O-])cc([N+](=O)[O-])c1`, the normalised LDH release is 0.954.

Molecule `CN1CCc2cc3c(cc2[C@H]1[C@@H]1OC(=O)c2c1ccc1c2OCO1)OCO3` returned a normalised LDH release of 0.998.

`O=C1CCCN1CC#CCN1CCCC1` gave a normalised LDH release of 0.603.

The molecule `COc1ccc2c3c([nH]c2c1)C(C)=NCC3` had a normalised LDH release of 0.933.

In turn, `CC(C)(C)NCC(O)c1ccccc1Cl` (stereo unspecified) returned a normalised LDH release of 0.924.

As to `C[C@]12CCC3C(CC[C@@H]4C[C@H](O)CC[C@]34C)C1CCC2=O` (stereo partly specified), the normalised LDH release came to 0.782.

With `[N-]=[N+]=CC(=O)OCC(N)C(=O)O` (stereo unspecified), the normalised LDH release was determined as 3.11.

Consider `O=C1CC2OCC=C3CN4CC[C@]56c7ccccc7N1C5[C@H]2[C@H]3CC46` (stereo partly specified), for which the normalised LDH release was determined as 0.617.

Consider `CCCC(C)C1(CC)C(=O)NC(=O)NC1=O` (stereo unspecified), for which the normalised LDH release is 0.845.

In turn, `Clc1ccc(COC(Cn2ccnc2)c2ccc(Cl)cc2Cl)c(Cl)c1` (stereo unspecified) gave a normalised LDH release of 0.927.

Consider `CCC1(CCC(C)C)C(=O)NC(=O)NC1=O`, for which the normalised LDH release was determined as 0.893.

`COC(=O)C1=CCCN(C)C1` had a normalised LDH release of 1.01.

In the case of `CC[C@@H](CO)NC(=O)[C@@H]1C=C2c3cccc4[nH]cc(c34)C[C@H]2N(C)C1`, the normalised LDH release worked out at 0.79.

For the molecule `CCOC(=O)C1(c2ccccc2)CCN(C)CC1`, the normalised LDH release was found to be 0.914.
